Experimental data from publication PMC12297799.
These are yes or no findings as the source states them, for the method shown. Binding seen in cells or lysates may run through a third protein. Some binding calls cover weakened binding; strength is not graded here.

Sequences of proteins named here, by UniProt entry; tags and fusion partners are left off.
UniProt Q08J23: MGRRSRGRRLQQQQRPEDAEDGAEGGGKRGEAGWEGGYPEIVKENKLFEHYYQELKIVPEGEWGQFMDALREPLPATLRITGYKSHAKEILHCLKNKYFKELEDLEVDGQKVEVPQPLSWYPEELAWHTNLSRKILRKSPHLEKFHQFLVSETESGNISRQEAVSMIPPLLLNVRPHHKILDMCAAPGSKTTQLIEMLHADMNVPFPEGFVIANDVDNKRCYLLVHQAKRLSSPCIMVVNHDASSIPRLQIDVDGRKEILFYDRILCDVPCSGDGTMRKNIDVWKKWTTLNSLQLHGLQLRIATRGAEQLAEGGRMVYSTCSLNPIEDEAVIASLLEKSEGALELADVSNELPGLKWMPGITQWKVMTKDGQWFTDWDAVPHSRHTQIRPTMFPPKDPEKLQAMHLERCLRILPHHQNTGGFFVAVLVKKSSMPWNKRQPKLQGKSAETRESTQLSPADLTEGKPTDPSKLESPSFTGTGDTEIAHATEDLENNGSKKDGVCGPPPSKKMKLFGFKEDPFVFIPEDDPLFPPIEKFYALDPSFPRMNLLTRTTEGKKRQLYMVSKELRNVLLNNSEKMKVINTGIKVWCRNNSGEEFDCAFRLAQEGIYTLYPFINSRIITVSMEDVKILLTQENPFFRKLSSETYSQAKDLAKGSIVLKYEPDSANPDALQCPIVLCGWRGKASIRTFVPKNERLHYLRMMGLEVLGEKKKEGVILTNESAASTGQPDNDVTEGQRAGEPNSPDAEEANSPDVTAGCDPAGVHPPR
UniProt Q9UNE7: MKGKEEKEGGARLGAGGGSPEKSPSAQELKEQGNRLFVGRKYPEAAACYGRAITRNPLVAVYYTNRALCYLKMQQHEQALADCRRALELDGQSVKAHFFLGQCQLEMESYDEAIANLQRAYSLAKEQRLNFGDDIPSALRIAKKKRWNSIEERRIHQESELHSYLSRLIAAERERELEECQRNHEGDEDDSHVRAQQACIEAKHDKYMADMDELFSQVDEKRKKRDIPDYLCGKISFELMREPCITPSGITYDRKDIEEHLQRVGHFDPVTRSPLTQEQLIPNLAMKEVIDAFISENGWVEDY

Target: endogenous NSUN2 of ESCC cells (human (endogenous in ESCC cells)) (UniProt Q08J23)
Test: co-IP; endogenous STUB1 and NSUN2 from ESCC cell lysate; also in ESCC cells with TTPAL knockdown or TTPAL overexpression; IP lysis buffer, antibody overnight at 4 °C, three washes, Western blot

- binding: binds
Substance: endogenous STUB1 of ESCC cells (from UniProt Q9UNE7 1-303)
